At least one read-out could not be matched to a standard name with certainty.
System: lymphocytic leukemia P388
Assay: Lymphocytic leukemia P388 test
Assay type: in vivo, BDF/1 mice
Conditions: mice with P388 leukemia
Method: Lymphocytic leukemia P388 test
The animals used were BDF/1 mice all of one sex, weighing a minimum of 18 g and all within a 3 g weight range. There were 5 or 6 animals per test group. The tumor transplant was by intraperitoneal injection of 0.5 ml of dilute ascitic fluid containing 10⁶ cells of lymphocytic leukemia P388. The test compounds were administered intraperitoneally on days 1,5 and 9 relative to tumor inoculation, at various doses. The animals were weighed and survivors recorded on a regular basis for 30 days. The median survival time and the ratio of survival time for treated (T)/control (C) animals were calculated. The positive control compound was either 1,4-dihydroxy-5,8-bis[[2-(2-hydroxyethylamino)ethyl]-amino]anthraquinone dihydrochloride or Cisplatin.

## Cl.Cl.O=C1c2c(O)ccc(O)c2C(=O)c2c(NCCNCCO)ccc(NCCNCCO)c21 [1,4-dihydroxy-5,8-bis[[2-(2-hydroxyethylamino)ethyl]-amino]anthraquinone dihydrochloride]
Dose 0.025 mg/kg intraperitoneally on days 1, 5 and 9
  Median Survival: 13 days
Dose 0.1 mg/kg intraperitoneally on days 1, 5 and 9
  Median Survival: 16 days
Dose 0.4 mg/kg intraperitoneally on days 1, 5 and 9
  Median Survival: 18 days
Dose 1.6 mg/kg intraperitoneally on days 1, 5 and 9
  Median Survival: 25 days

Reference: patent EP0210291A1, “Platinum complexes of antitumor agents” (AMERICAN CYANAMID COMPANY, priority 1985, dated 1987)
